In paper PMC4321484:
No constants are given. Whether binding was seen depends on the method and setting. Sequences can lack the tags named with a protein.

Molecular target: s-Yju3p, soluble variant (L175S) of the monoglyceride lipase Yju3p from Saccharomyces cerevisiae (S. cerevisiae)
Experiment: SEC; Superdex 200 in buffer A (20 mM Tris-HCl pH 8.0, 100 mM NaCl, 5% glycerol, 1 mM EDTA, 1 mM DTT), flow rate 2 ml/min; after Ni-NTA; both purified

binding: no binding
B1: s-Yju3p, soluble variant (L175S) of the monoglyceride lipase Yju3p from Saccharomyces cerevisiae (enzyme)
chain: APYPYKVQTTVPELQYENFDGAKFGYMFWPVQNGTNEVRGRVLLIHGFGEYTKIQFRLMDHLSLNGYESFTFDQRGAGVTSPGRSKGVTDEYHVFNDLEHFVEKNLSECKAKGIPLFMWGHSMGGGICLNYACQGKHKNEISGYIGSGPLIILHPHTMYNKPTQIIAPLLAKFSPRVRIDTGLDLKGITSDKAYRAFLGSDPMSVPLYGSFRQIHDFMQRGAKLYKNENNYIQKNFAKDKPVIIMHGQDDTINDPKGSEKFIRDCPSADKELKLYPGARHSIFSLETDKVFNTVFNDMKQWLDKHTTTEAKP
